From PubChem BioAssay AID1347423 (Functional Genomics Laboratory (NCATS/FGL), 2020) come the findings set out here.

Among all 52,000 sequences or so, about 210 (0.4%) were called active.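 The calls were made as follows: active = gene whose silencing raises cell survival under the drug, median off-target-corrected z-score across its silencing RNAs 2 or more; inactive = the rest.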 This is one part of the list.

A short description of this experiment: Resistance to Poly (ADP-Ribose) Polymerase inhibitor: Gene Identification via Genome-wide siRNA Screen. Particulars: mouse BRCA2 R2336H ES cells, olaparib, CellTiter-Glo viability; stronger effect = higher value. The procedure, abridged: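 Genome-wide siRNA screen (3 siRNAs/gene, 20 nM) in mouse ES cells carrying hypomorphic BRCA2 R2336H; olaparib 500 nM added 48 h post-transfection, CellTiter-Glo viability 72 h later. Normalized to plate-median negative control; MAD z-scores, gene median, seed-adjusted.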
Turning to GGUUGACGAAAUGACUAUATT against Adh4, the z-score was inactive: 0.916. With GGAACAUGUUAAAAACCCUTT against Ubtf, the z-score was inactive: 0.0149. As to GGACACUACGUGCUCAGUATT against Tcl1b5, the z-score is inactive: -1.05.

Regarding GGAUGUGACUUCGAGAGCATT against Cxcr4, the z-score is inactive: -0.252. Next, GGAAAUCUCAGAAAUCAAATT against Pmf1: inactive: 0.467; GCUUGCUCUCUCAGUAGUATT against Olfr133: inactive: 0.332. The same measure for CGAGAUGUCCCAGAAUCAUTT against Wdr75: inactive: -2.75; for “GGAAGCCGAGAAUACAGCATT against 2610034K17Rik”: inactive: 0.485; for “GGACAGAGCAUCACAGAAGTT against 9930117H01Rik”: inactive: -2.15.

Consider “GGAGUACUUCGUGUUCCGGTT against 1200015A19Rik”, for which the z-score was inactive: 0.909. Next, “GGAUAAAUCCUCAGAUGAUTT against 1700006D24Rik”: inactive: 1.27; GCCCUUGGCAUUACUGAGATT against Serpine2: inactive: 0.387; CCGCUACCUUAAGCACCUATT against Terf2ip: inactive: -2.12.

GGAGUGUGAAGAGAUACAGTT against C9: the z-score is inactive: -1.46. As for GGAACAUUGGCAUCACGACTT against Acy1, the z-score was inactive: 1.95. With GCCCAAAGGUUCGUAAGGUTT against Rpl7, the z-score is inactive: -3.18. Turning to GCAACUAUUGUCUAAAUGCTT against Fnbp3, the z-score was inactive: -1.09. Regarding CCAGUUCUUAACAUUGUGUTT against Syap1, the z-score is inactive: 0.388.

Regarding GCAAUGGCAUCAACCAUUCTT against Cbfa2t2h, the z-score is inactive: -0.0989. The same measure for GUAAAAUGUUCACUAAAGCTT against Olfr1248: inactive: 0.0862.

Consider “GGAUGAACAUUCUGGAAAUTT against 2010009L17Rik”, for which the z-score is inactive: -0.768.

As for CCACUAACAGCUCAUGUCATT against Rpe65, the z-score is inactive: 0.235.

With GGACCUCACAGAUUAUGGGTT against Ebi3, the z-score was inactive: -0.0223. For CGUGAAAAUAGAAAGGUAATT against Rfk, the z-score is inactive: -0.814. Take GAGAAGAAGCCUAACCUCATT against Ang1: the z-score is inactive: -0.311.

With GGUGGACAAGACAAGCAUCTT against Ilvbl, the z-score is inactive: 0.543.

For the sequence GGUAAUUUUCCAGAGCCAUTT against Tenr, the z-score was inactive: -0.954. In the case of GGCUAGGAGAGUCUCCCUUTT against Rfx1, the z-score was inactive: 0.937.

Turning to GGAAAACAAACCACAGCCATT against Tpbpa, the z-score was inactive: -0.94.

With GCUGGAUAAGAAUGGCGAUTT against Calb3, the z-score was inactive: 1.07.

With “CGAAAAAGACAGGCUUGGATT against 2310032F03Rik”, the z-score is inactive: -2.19. Take “GGGUAAACUGUGGAGAAAUTT against B230312A22Rik”: the z-score is inactive: 0.101.

In the case of GGAAGCUGCUUUUCUAAAUTT against Il7, the z-score was inactive: 2.06. Take “GGAUGCCAAUUUGGCUAAGTT against 4833427G06Rik”: the z-score was inactive: -1.55. For GGAGAAACAGCAAGUAUCUTT against Il21r, the z-score is inactive: -1.56. Next, CCCACAGUAAAUUCAACGGTT against MGC68323: inactive: 0.907; GGAAGGUAACUGGAAGGAGTT against Snx4: inactive: -0.545; GGCAGCAUUACACUGAAUCTT against Slc36a4: inactive: 0.104.

On to GCAGAUAACUACUGCCACGTT against Pkd1l3, for which the z-score was inactive: 0.0535. Take CCUACGUCAUUUCAGCACCTT against Hc: the z-score was inactive: 1.58.

With GCACAUGCAGACAGUUACCTT against Gpr54, the z-score is inactive: -0.487. GGUAUGCACCUGUAACUCATT against Kcnk1: the z-score was inactive: -0.112. Next, GGGAUAUCCAAAGUCACGGTT against Capza3: inactive: 1.09; GGAAGAGAAGUUCAUGAGCTT against Gabrr1: inactive: -0.585; GGAAAAAUUAGACCGUGAGTT against Pcdhb4: inactive: -0.862. As for GUACAUUUGCUGGAGCCUCTT against Hps6, the z-score is inactive: -0.585. The same measure for GGUGCUACCUCUAGAUAUUTT against Crlz1: inactive: -0.808; for GUGCAAUCCUUCUUCUUCCTT against Olfr166: inactive: -2.33; for GGACAACAUAUUCUGAUAATT against Gm1574: inactive: 0.0397. In the case of GGCUUCUUUGUCAUAGGAGTT against Olfr353, the z-score was inactive: -0.491.

Turning to “GGAGCGAGAAGGUAAAGUCTT against D14Ertd581e”, the z-score was inactive: 0.892. Regarding GGCCGAAUAAUGCAUAUACTT against Ythdf2, the z-score was inactive: 1.07.

GCUCAUGCUCUUAUGUUAGTT against Vamp3: the z-score was inactive: 0.223. The same measure for GGAUUGAGAAAAUCUACAUTT against Tnfrsf8: inactive: -1.24; for GGCGGUUUCUUUUCAUUGGTT against Nhlh1: inactive: -0.598; for GGGCUUCAAACCCACAGAATT against Nova2: inactive: -0.523. Consider GGGAAUCAGCAUACUUCCUTT against Kb37, for which the z-score is inactive: -0.136. For the sequence “AGAACGGAACCAUAGGGAATT against 2310061C15Rik”, the z-score was inactive: -1.03. As to CGGAACUCUGCCACAAGUUTT against Zfp36, the z-score is inactive: -0.892.

On to CCAACAAUGAUUAAUCAGCTT against Meis1, for which the z-score was inactive: -0.122. On to “GUUCUAGGCCUCCUGAAGCTT against 1110033C18Rik”, for which the z-score was inactive: -0.994. On to GGCUGGUACUUGAGUUCAATT against Soat1, for which the z-score is inactive: -1.37.

For GGAAAAGUGGGUUGAAGUUTT against Ipp, the z-score is inactive: 0.104.

Take GGAGCAAUUUGAAGACUAUTT against Rab11fip4: the z-score was inactive: -0.295. Next, GGAUUUCGGCUUUUUGAACTT against Bcas1: inactive: -0.147; CCAAAAGUCACGUUUCUCATT against Per2: inactive: 1.2. In the case of GGAUCAUACCAAAGUACACTT against Cyp2a12, the z-score is inactive: -1.68.

As for GGAGAAAGUCCCAUUAGAGTT against Loh11cr2a, the z-score is inactive: 2.42. With GGAACCUUCAGAGCGACUUTT against Trib3, the z-score was inactive: -0.287. Next, “GGCAUACUACACAAAGCAGTT against 4933424F08Rik”: inactive: -0.104; “CCUCACUUCAGCAAAACCATT against 1200003E16Rik”: inactive: 0.42. The same measure for GGUAUUUUGUUUUUUGGGUTT against Olfm3: inactive: -0.917.

CCUGAACGACAGAUUGGCATT against Krt20: the z-score was inactive: 0.19. GGAUGAUGACAUUCACUUATT against Ntan1: the z-score is inactive: -0.897.

On to “GGAGGCUUUUCAGACCAAGTT against 3830406C13Rik”, for which the z-score was inactive: 1.21. Turning to GGGACCCUACAAAAUCAUUTT against Ganab, the z-score is inactive: 0.37. The same measure for GGUCCUAUUUAUUAAUACCTT against Emid1: inactive: -0.32; for GGACAGCUCUCUCCAUACATT against Tlr9: inactive: -1.36; for GCUGGACCCUUAAGUGUAATT against Bmyc: inactive: -0.727. As for “UCUCCUUCCUAACUUCAACTT against E030010A14”, the z-score is inactive: 0.4.

As for GCAGGGAGGCAUCUUCUUUTT against Olfr3, the z-score is inactive: 0.8.

As for GCACCAAACCAAUAUUAGUTT against Epb4.1l3, the z-score is inactive: 0.504. For GGAGAAAAAAGUGAAACUCTT against Cntn4, the z-score is inactive: -0.782. The same measure for GGAUCGAUAAACAAAUAAGTT against Tmem16d: inactive: -1.11; for GGUCCUUCAUUUGGUUACATT against Dtna: inactive: -1.66. On to GGCACAGAAAAUCUUCAAATT against Ap2a1, for which the z-score was inactive: 1.67. The same measure for GGUGAAUGGAACAGGUAAGTT against LOC237891: inactive: -1.54; for GGCUAAUCACUAGAUUAGATT against Ldb2: inactive: 0.435; for “GCGAACUAUUCAAAAGUUATT against 4921504E06Rik”: inactive: -0.433. Next, GCCGAUGUAUCUACUUUGCTT against Rnase6: inactive: 1.13. The same measure for GCAACAUCGUAUGUUAAUGTT against Slc9a4: inactive: 0.819; for GGUUGCUAUUAUUAUUGGATT against Fnbp4: inactive: -0.969; for GGAGACAGAGAUCAUUGAATT against Ruvbl2: inactive: -1.21. On to “GCCUCCCGGAAAUAUAGGUTT against 2610511M17Rik”, for which the z-score was inactive: 0.0433. The same measure for GGAAAUUAUGACAUGCACCTT against Eya3: inactive: 0.585. “GCACCCAAACUUAAAAUAGTT against A230091H23”: the z-score was inactive: -1.42. The same measure for CCUCACAAAUAUACAGUUCTT against Pira2: inactive: -1.68; for CGACAUGUCAAAACUCACGTT against LOC244556: inactive: 1.6. On to “GGAAAUGUGGAGCUCAACGTT against 1810031K02Rik”, for which the z-score is inactive: -1.13. On to GCCACCAUGUGCAACAUACTT against Ifit2, for which the z-score is inactive: -1.07.

As for GGAGAUAAAUGUGUAGACCTT against Matn3, the z-score was inactive: 1.68. The same measure for GCCUGAGGAAUCGUGACAUTT against Olfr51: inactive: 1.02; for “GGUCACACCCAUAAACUAATT against B630019K06Rik”: inactive: -0.687; for GGCAUUGAAUUACUUACAUTT against Slk: inactive: 0.152. With “GGUAUAAGGAUUCUUUGAATT against 4833435D08Rik”, the z-score was inactive: -0.362.
